Laboratory results published in PMC8807876.

Amino acid sequences for entries named in this document (tags omitted). A change or cut given only in a name is not applied to a line headed by its entry.
UniProt Q7Z2Z1: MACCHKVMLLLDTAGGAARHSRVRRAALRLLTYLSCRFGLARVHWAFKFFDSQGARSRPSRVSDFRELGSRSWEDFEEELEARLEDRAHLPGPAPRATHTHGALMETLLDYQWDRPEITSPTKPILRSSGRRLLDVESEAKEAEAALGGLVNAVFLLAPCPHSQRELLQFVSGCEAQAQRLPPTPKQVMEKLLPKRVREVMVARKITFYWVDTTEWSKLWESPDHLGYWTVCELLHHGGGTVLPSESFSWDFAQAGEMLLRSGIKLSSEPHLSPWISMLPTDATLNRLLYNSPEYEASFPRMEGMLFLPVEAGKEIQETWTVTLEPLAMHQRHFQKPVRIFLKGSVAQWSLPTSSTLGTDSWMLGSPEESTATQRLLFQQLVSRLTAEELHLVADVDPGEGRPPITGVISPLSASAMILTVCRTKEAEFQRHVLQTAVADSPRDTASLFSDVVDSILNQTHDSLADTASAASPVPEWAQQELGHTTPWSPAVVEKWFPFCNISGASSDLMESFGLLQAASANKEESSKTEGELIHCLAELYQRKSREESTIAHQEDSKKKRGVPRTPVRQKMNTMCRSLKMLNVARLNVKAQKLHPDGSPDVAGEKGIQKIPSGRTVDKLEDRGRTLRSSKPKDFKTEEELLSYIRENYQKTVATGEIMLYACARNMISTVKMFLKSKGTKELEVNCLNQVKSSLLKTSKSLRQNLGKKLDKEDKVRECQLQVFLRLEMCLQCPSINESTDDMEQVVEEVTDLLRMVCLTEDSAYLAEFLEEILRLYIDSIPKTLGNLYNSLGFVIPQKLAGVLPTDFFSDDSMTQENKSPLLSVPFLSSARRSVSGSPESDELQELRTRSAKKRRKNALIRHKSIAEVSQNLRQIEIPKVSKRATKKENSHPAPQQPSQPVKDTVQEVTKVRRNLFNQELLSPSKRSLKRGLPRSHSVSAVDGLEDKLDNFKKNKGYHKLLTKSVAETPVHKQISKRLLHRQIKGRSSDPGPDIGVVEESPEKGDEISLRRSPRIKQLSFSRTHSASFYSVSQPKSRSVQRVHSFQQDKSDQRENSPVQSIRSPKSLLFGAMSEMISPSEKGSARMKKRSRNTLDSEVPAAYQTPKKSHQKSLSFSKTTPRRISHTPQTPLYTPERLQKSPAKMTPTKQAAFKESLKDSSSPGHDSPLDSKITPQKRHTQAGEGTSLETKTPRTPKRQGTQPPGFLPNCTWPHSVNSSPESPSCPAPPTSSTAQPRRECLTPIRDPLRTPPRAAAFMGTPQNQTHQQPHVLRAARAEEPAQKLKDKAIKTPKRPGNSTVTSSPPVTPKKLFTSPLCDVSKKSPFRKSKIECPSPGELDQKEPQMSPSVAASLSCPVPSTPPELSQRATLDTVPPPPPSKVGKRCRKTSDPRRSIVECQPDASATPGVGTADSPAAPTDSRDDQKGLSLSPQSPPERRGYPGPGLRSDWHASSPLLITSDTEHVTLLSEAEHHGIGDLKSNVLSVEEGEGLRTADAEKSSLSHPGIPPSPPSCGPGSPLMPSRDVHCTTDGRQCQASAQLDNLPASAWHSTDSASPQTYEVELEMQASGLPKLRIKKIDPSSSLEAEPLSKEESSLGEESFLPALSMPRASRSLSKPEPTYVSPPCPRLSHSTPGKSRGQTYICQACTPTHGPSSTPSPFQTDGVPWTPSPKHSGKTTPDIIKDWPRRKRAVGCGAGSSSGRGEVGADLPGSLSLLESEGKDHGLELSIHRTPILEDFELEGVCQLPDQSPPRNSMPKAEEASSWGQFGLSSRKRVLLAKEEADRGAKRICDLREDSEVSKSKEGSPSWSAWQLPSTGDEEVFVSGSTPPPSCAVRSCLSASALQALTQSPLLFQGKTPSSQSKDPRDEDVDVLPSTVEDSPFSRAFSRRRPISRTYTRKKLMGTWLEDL

Assays:
Test in all cases: co-IP; Fig S13: GFP-Flag-Treslin/TICRR mutants transiently transfected into 293T together with MTBP; native lysates, anti-GFP nanobody IP in the presence of recombinant Cdk2-cyclin A; immunoblots for GFP, TopBP1 and MTBP
[1] = molecular target: GFP-Flag-Treslin/TICRR-ΔC651 (human) (UniProt Q7Z2Z1)
[2] = molecular target: GFP-Flag-Treslin/TICRR-ΔC853 (human) (UniProt Q7Z2Z1)
[3] = molecular target: GFP-Flag-Treslin/TICRR-ΔCIT/ΔC651 (human) (UniProt Q7Z2Z1)

Measured: binding

B1: MTBP (co-transfected) (protein, UniProt Q96DY7 1-904)
chain: MDRYLLLVIWGEGKFPSAASREAEHGPEVSSGEGTENQPDFTAANVYHLLKRSISASINPEDSTFPACSVGGIPGSKKWFFAVQAIYGFYQFCSSDWQEIHFDTEKDKIEDVLQTNIEECLGAVECFEEEDSNSRESLSLADLYEEAAENLHQLSDKLPAPGRAMVDIILLLSDKDPPKLKDYLPTVGALKHLREWYSAKITIAGNHCEINCQKIAEYLSANVVSLEDLRNVIDSKELWRGKIQIWERKFGFEISFPEFCLKGVTLKNFSTSNLNTDFLAKKIIPSKDKNILPKVFHYYGPALEFVQMIKLSDLPSCYMSDIEFELGLTNSTKQNSVLLLEQISSLCSKVGALFVLPCTISNILIPPPNQLSSRKWKEYIAKKPKTISVPDVEVKGECSSYYLLLQGNGNRRCKATLIHSANQINGSFALNLIHGKMKTKTEEAKLSFPFDLLSLPHFSGEQIVQREKQLANVQVLALEECLKRRKLAKQPETVSVAELKSLLVLTRKHFLDYFDAVIPKMILRKMDKIKTFNILNDFSPVEPNSSSLMETNPLEWPERHVLQNLETFEKTKQKMRTGSLPHSSEQLLGHKEGPRDSITLLDAKELLKYFTSDGLPIGDLQPLPIQKGEKTFVLTPELSPGKLQVLPFEKASVCHYHGIEYCLDDRKALERDGGFSELQSRLIRYETQTTCTRESFPVPTVLSPLPSPVVSSDPGSVPDGEVLQNELRTEVSRLKRRSKDLNCLYPRKRLVKSESSESLLSQTTGNSNHYHHHVTSRKPQTERSLPVTCPLVPIPSCETPKLATKTSSGQKSMHESKTSRQIKESRSQKHTRILKEVVTETLKKHSITETHECFTACSQRLFEISKFYLKDLKTSRGLFEEMKKTANNNAVQVIDWVLEKTSKK
binds: all assays above

Results are given in words; binding and its absence hold for the method and conditions named. In cells and extracts the contact can be indirect. Binding calls can cover weak binding; strength is not graded here.
